Results: paper PMC5595311
These are yes or no findings as the source states them, for the method shown. Binding seen in cells or lysates may run through a third protein. Tags and fused reporters may be left off the sequences shown.

Target: T1, TRIF (Flag- or HA-tagged) (murine) (UniProt Q80UF7)
T1 sequence: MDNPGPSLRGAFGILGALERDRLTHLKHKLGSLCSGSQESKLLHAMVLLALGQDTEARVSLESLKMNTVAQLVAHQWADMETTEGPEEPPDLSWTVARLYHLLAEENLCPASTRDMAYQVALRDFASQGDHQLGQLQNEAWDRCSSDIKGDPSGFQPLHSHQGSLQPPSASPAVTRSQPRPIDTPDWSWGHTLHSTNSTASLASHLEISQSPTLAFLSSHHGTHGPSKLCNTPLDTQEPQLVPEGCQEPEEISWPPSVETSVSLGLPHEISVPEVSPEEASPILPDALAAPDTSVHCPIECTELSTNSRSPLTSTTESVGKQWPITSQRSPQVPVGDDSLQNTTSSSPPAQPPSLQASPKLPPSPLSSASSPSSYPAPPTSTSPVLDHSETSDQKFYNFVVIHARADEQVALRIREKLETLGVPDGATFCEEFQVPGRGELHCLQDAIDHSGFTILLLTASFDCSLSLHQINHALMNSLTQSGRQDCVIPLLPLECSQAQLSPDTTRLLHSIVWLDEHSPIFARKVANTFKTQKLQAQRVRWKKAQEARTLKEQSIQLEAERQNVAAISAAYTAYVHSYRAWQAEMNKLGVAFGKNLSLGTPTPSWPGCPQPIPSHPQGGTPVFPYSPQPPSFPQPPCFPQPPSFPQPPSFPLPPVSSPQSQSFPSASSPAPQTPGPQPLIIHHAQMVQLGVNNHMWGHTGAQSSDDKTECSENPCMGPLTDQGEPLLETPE
Assay: co-IP; HEK293 cells transfected with the indicated plasmids for 24 hours, co-immunoprecipitation and immunoblotting with the indicated antibodies

B1: NDP52 (Flag- or HA-tagged) (protein, UniProt A2A6M5 1-331)
chain: MDQCPIPTLLEHGNFSQVLFNNVEKFYAPRGDIMCYYTLTEKFIPRRKDWIGIFKVGWKTTQEYYTFMWAPLPKDQNKDSATQQEIQFKAYYLPKDVERYQFCYVDEDGLVRGTSVPFQFCPDPDEDIMVVINKEKVEEMEQLSEELYQQNQELKDKYADLHEQLQRKQVALEATQRVNKTLEHKVEEKASWEKEKASWEEEKASWEEEKASWEEEKASWEEEKASWEEEKASWEEEKASWEEEKASWEEEKASWEEEKASWEEEKASWEEEKASWEEEKASWEEEKASWEKEKASWEEEKASWEKEKAPWEVEKAPWKEVKAYWWNDLHR
binding: no binding
